Measured values reported in paper PMC5599239.
Results are given in words; binding and its absence hold for the method and conditions named. Some entries that bind do so weakly or less than the wild type. Where a sequence is shown, tags or fusion partners need not be part of it.

T1: Mrc1-Flag (S. cerevisiae) (UniProt P25588)
T1 sequence: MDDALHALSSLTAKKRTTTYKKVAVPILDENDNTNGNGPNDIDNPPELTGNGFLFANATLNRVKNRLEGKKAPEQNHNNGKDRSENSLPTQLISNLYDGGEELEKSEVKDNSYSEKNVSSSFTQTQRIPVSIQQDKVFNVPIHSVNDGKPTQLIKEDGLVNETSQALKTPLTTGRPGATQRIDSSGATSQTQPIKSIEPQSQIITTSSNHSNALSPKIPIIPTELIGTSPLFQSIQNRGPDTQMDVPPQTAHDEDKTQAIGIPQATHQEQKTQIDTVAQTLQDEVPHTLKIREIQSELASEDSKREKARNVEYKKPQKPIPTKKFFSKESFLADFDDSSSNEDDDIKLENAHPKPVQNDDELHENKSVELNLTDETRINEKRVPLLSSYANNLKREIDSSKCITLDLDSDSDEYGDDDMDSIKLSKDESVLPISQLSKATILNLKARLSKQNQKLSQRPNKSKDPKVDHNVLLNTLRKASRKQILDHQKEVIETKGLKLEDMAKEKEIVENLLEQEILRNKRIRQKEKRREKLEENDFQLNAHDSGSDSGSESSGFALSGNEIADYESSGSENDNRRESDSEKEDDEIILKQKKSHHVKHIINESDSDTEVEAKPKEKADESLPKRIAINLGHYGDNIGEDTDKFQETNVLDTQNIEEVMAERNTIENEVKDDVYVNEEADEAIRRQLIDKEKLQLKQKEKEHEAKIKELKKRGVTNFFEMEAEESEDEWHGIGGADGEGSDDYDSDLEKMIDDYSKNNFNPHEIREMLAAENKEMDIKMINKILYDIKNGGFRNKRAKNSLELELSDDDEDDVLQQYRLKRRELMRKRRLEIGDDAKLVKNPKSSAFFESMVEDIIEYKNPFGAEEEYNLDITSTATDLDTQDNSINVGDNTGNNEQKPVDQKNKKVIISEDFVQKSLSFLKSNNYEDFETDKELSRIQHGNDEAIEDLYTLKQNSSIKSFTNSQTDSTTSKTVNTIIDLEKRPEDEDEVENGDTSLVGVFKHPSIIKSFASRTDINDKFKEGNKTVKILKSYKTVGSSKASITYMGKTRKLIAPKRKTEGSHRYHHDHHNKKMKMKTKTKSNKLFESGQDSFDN


Biological target: T1, Mrc1-Flag (S. cerevisiae)
Experiment: co-purification of co-expressed subunits (anti-FLAG affinity, then Superose 12 gel filtration); Mrc1-Flag, Tof1 and His-Csm3 co-expressed in yeast; extract bound to anti-Flag M2 resin in 250 mM K glutamate, 50 mM HEPES pH 7.5, 1 mM EDTA; eluted with 3X FLAG peptide; Superose 12 in 2X PBS with 10% glycerol; fractions on SDS-PAGE

binding	Binder
binds	Tof1 (protein, UniProt P53840 1-1238) MSADLQQGTTNAADFSLTVLRARIALLATAIGGPDYTSQIDPPPYKLGDDCLACLKDLKRWFKLVDDQQKRWDVAMAVAEYRILTDDLLPILIDWENKCSLAAKLAKNNPDHEEFRNKAYYDKIALNCLQLLVLMTWPLIVTEQSSSNQITLYGELKKHQLVYKKTILSMESGKVLRAAIRLALDVIKIDRLSRTPRDNMVLKLVLNFFRNVIAIEPGEFTINTKKSMPKKGITSIDTLPPNVSMDDISLNTVISSFHKNKVFGFLLTLTSSLSKEFDQDFINIPLLEIMFYFTKDVNQELLFPRQFETGTHSKVVNKNESSSANNIVTSAGFELSKLLQKEHQMRKNVIKHTSARHSRFGGLLSIQTPDKTRLTVSGSQALVDEKIALQKLDDSKKWNKRIIKKHQSVAAEGLPNSLLNSQTGKAIFFTESNGKHFKEFINNFIDSGFNILLHSVTNYFTTEQDRMVTLEQVEYLLFFAWFVKYQLLRSKIDNSADIKQVSEALKEVTFILVSSLLRSAYDLKNWTVTHAGMIAFNELLNLVSRTKAAQEEDSTDIEFIVSRLFSDERIQLLSNLPKIGSKYSLQFMKSCIELTHSVLKVLEQYSDDKTLVIEGKSRRQKKFNISEGDITKLIEEENVDRDEALDILTSSLRSIEVNFQKVQANYMTEPVIETYINFLERFRELEDDSIKKVFSFFHRVFVQAKEQALLFRFDLIILLREMLSPDGLDRMSRSRKYVSQFSDYFLARLKKRLKKSPAWFVGLLFPPLHNSEVGFYQRYGEYNVLNNESMYAAPASQFKPIPDEEALPPSILLDMKYGVLVSTLLDDGKTELLDQLLKHITHTLDIFKSWLTVNVNAGKETVNPPNEYFTLTGVLNNDPIFKDKDYRALLLLIGYSIPRKINEPCFLPGTVEVSDLTVSCELVKKYLSTPFETPNGLPSSSYLLRVRSEKDSFSHNEQDGWEGDDDYDYNDPYIVPDDQILSKSDAAYFKDLDNNASDKLKGTKFSKGIARSKKKDKRKRRKGEAKTNLPMFGDQDDERPQTVRERHGVFSKEFISDSEDDEDLMNPIFFENETYMRWLLDKNNGQLTEDRYIQFAKFAAERMNNGGVVTGDYTSLFGGSIPSIESIRATESSSFAPDKSLISLASHVASEMSIFDVNNNNNNQLSDDDVNSESRNSLGSSQPSNSQNMFQSEVYSRKESTKRSLEASAADESDEDEEAIRLFGKKSRVVLSQGDSDD
binds	His-Csm3 (protein, UniProt Q04659 1-317) MDQDFDSLLLGFNDSDSVQKDPTVPNGLDGSVVDPTIADPTAITARKRRPQVKLTAEKLLSDKGLPYVLKNAHKRIRISSKKNSYDNLSNIIQFYQLWAHELFPKAKFKDFMKICQTVGKTDPVLREYRVSLFRDEMGMSFDVGTRETGQDLERQSPMVEEHVTSAEERPIVADSFAQDKRNVNNVDYDNDEDDDIYHLSYRNRRGRVLDERGNNETVLNNVVPPKEDLDALLKTFRVQGPVGLEENEKKLLLGWLDAHRKMEKGSMTEEDVQLIQSLEEWEMNDIEGQHTHYDLLPGGDEFGVDQDELDAMKEMGF
